PubChem BioAssay AID330 (DTP/NCI, 2004)
The list shows only some results of the screen, not a fair sample: it is rich in T/C values a quarter to a half above the control, in often repeated tests (any T/C) and in doses without a T/C. Other doses and runs of a compound stand elsewhere. T/C gives the treated animals as a percentage of the vehicle group. Some entries give survivors of the animals treated and no T/C: the source files T/C as zero there, which appears to mark a toxic dose or a test without result, not a measured value. Some survivor counts are full or nearly so, which does not show that the dose was tolerated: survival well below the control is almost never listed, so the zero probably covers shortened survival too. Survivors were counted at the toxicity check, usually on the fifth day, unless a day is given; later deaths do not show. Schedules are NCI's codes, taken here to give the interval after Q, in days (D) or hours (H), and the number of doses after X. Brackets with × give the number of equal values in this list. Some entries were tested several times; the values are given in rising order. For survival time, this PubChem deposit counts one and a half times the control or more as active, and values a quarter to a half above the control carry no call in these data; other NCI protocols may use other cut-offs.

System: P388 leukemia ip, CD2F1 mice, survival T/C
Assay: NCI In Vivo Anticancer Drug Screen. Data for tumor model P388 Leukemia (intraperitoneal) in CD2F1 (CDF1) mice
Settings: T/C endpoint: median survival time, higher T/C = longer survival
[1] = dose: 120.0 mg/kg/injection, schedule: Q01DX005 (ip), vehicle: saline with Tween-80
[2] = dose: 240.0 mg/kg/injection, schedule: Q01DX005 (ip), vehicle: saline with Tween-80
[3] = dose: 200.0 mg/kg/injection, schedule: Q01DX009 (ip), vehicle: saline
[4] = dose: 400.0 mg/kg/injection, schedule: Q04DX003 (ip), vehicle: saline with Tween-80
[5] = dose: 200.0 mg/kg/injection, schedule: Q01DX005 (ip), vehicle: Klucel (hydroxypropylcellulose) (HPC)
[6] = dose: 50.0 mg/kg/injection, schedule: Q01DX009 (ip), vehicle: Klucel (hydroxypropylcellulose) (HPC)
[7] = dose: 100.0 mg/kg/injection, schedule: Q01DX009 (ip), vehicle: Klucel (hydroxypropylcellulose) (HPC)
[8] = dose: 200.0 mg/kg/injection, schedule: Q01DX009 (ip), vehicle: Klucel (hydroxypropylcellulose) (HPC)

## CCC1=C[C@H]2CN(CCc3c([nH]c4cc(Br)ccc34)[C@@](C(=O)OC)(c3cc4c(cc3OC)N(C)[C@H]3[C@@](O)(C(=O)OC)[C@H](OC(C)=O)[C@]5(CC)C=CCN6CC[C@]43[C@@H]65)C2)C1
dose: 8.0 mg/kg/injection, schedule: Q01DX001 (ip), vehicle: water
  T/C: 132 % of control
dose: 10.8 mg/kg/injection, schedule: Q01DX001 (ip), vehicle: water
  T/C: 142 % of control
dose: 50.0 mg/kg/injection, schedule: Q01DX001 (ip), vehicle: water
  survivor count: 0 of 6

## COc1cc2[nH]c3cc(OC)c(OC)cc3c2cc1C
[1]
  survivor count: 6 of 6
[2]
  survivor count: 6 of 6

## CCOc1c(N=Nc2cccc([N+](=O)[O-])c2)c(C)nn1C(=S)SC
dose: 240.0 mg/kg/injection, schedule: Q01DX005 (ip), vehicle: Klucel (hydroxypropylcellulose) (HPC)
  survivor count: 3 of 6

## C/C(=N/NC(N)=O)c1cccc(/C(C)=N/NC(N)=O)n1.[Cl][Cu][Cl]
dose: 50.0 mg/kg/injection, schedule: Q01DX009 (ip), vehicle: saline
  survivor count: 0 of 6
dose: 100.0 mg/kg/injection, schedule: Q01DX009 (ip), vehicle: saline
  survivor count: 0 of 6
[3]
  survivor count: 0 of 6

## C=C1C(=O)OC2C1CCC(C)=C1C(=O)C=C(C)C12 (configuration not stated)
[4]
  survivor count: 0 of 6

## Nc1ncncc1-c1ccc(F)cc1
[3]
  survivor count: 0 of 6

## COC1C(O)C(C)OC(OC2C(Oc3cccc4c(O)c5c(=O)oc6ccc(C)c7c(=O)oc(c34)c5c67)OC(C)C(O)C2O)C1O (configuration not stated)
dose: 1.0 mg/kg/injection, schedule: Q01DX009 (ip), vehicle: saline with Tween-80
  T/C: 139 % of control
dose: 2.0 mg/kg/injection, schedule: Q01DX009 (ip), vehicle: saline with Tween-80
  T/C: 148 % of control

## CCN(CC)CCSc1ccccc1
[5]
  survivor count: 0 of 6

## CCN1CCCC(Nc2cc(C)nc(/N=C(/N)Nc3ccc(Cl)c(Cl)c3)n2)C1 (configuration not stated)
dose: 25.0 mg/kg/injection, schedule: Q01DX009 (ip), vehicle: water
  survivor count: 6 of 6
dose: 50.0 mg/kg/injection, schedule: Q01DX009 (ip), vehicle: water
  survivor count: 1 of 6 and 4 of 6
dose: 100.0 mg/kg/injection, schedule: Q01DX009 (ip), vehicle: water
  survivor count: 0 of 6
dose: 200.0 mg/kg/injection, schedule: Q01DX009 (ip), vehicle: water
  survivor count: 0 of 6

## O=C(CI)Nc1ccc2[nH]c(=O)cc(C(=O)O)c2c1
[5]
  survivor count: 0 of 6

## COC(=O)/C=C(\C)Oc1cc(Cl)c(Cl)cc1Cl
dose: 200.0 mg/kg/injection, schedule: Q01DX009 (ip), vehicle: saline with Tween-80
  survivor count: 6 of 6

## N#CNC(=Nc1ccccc1)[N](C#N)[Sn]([c]1ccccc1)([c]1ccccc1)[c]1ccccc1
dose: 12.5 mg/kg/injection, schedule: Q01DX005 (ip), vehicle: Klucel (hydroxypropylcellulose) (HPC)
  survivor count: 1 of 6
dose: 25.0 mg/kg/injection, schedule: Q01DX005 (ip), vehicle: Klucel (hydroxypropylcellulose) (HPC)
  survivor count: 0 of 6
dose: 50.0 mg/kg/injection, schedule: Q01DX005 (ip), vehicle: Klucel (hydroxypropylcellulose) (HPC)
  survivor count: 0 of 6
dose: 100.0 mg/kg/injection, schedule: Q01DX005 (ip), vehicle: Klucel (hydroxypropylcellulose) (HPC)
  survivor count: 0 of 6
[5]
  survivor count: 0 of 6

## CCC(/C=C/c1ccccc1)=N\NC(=O)c1ccc(C)cc1
dose: 50.0 mg/kg/injection, schedule: Q01DX005 (ip), vehicle: saline with Tween-80
  survivor count: 6 of 6
dose: 100.0 mg/kg/injection, schedule: Q01DX005 (ip), vehicle: saline with Tween-80
  survivor count: 6 of 6
dose: 200.0 mg/kg/injection, schedule: Q01DX005 (ip), vehicle: saline with Tween-80
  survivor count: 6 of 6

## CCC(c1ccc(OC)cc1)C(NCC(=O)N/N=C/c1c[nH]c2ccccc12)c1ccc(OC)cc1 (configuration not stated)
dose: 400.0 mg/kg/injection, schedule: Q01DX001 (ip), vehicle: saline with Tween-80
  survivor count: 5 of 6

## COc1cc(O)c(CC=C(C)C)cc1O
[5]
  survivor count: 1 of 5

## CSC(=Nc1nc2ccc([N+](=O)[O-])cc2s1)SC
[6]
  survivor count: 6 of 6
[7]
  survivor count: 2 of 6
[8]
  survivor count: 0 of 6

## Cc1ccc(Cl)c([N+](=O)[O-])c1N
[4]
  survivor count: 0 of 6

## O=C(CN1CCCCC1)Nc1cccc(Cl)c1
dose: 400.0 mg/kg/injection, schedule: Q01DX009 (ip), vehicle: saline with Tween-80
  survivor count: 0 of 6

## C[CH2][Sn]([CH2]C)([S]CCS(=O)(=O)O)[S]CCS(=O)(=O)O
dose: 3.75 mg/kg/injection, schedule: Q01DX005 (ip), vehicle: saline
  T/C: 125 and 131 % of control
dose: 7.5 mg/kg/injection, schedule: Q01DX005 (ip), vehicle: saline
  T/C: 127 and 137 % of control
dose: 15.0 mg/kg/injection, schedule: Q01DX005 (ip), vehicle: saline
  survivor count: 1 of 6
dose: 60.0 mg/kg/injection, schedule: Q01DX005 (ip), vehicle: saline
  survivor count: 0 of 6
dose: 120.0 mg/kg/injection, schedule: Q01DX005 (ip), vehicle: saline
  survivor count: 0 of 6
dose: 240.0 mg/kg/injection, schedule: Q01DX005 (ip), vehicle: saline
  survivor count: 0 of 6

## Cc1cc(N(CCCl)CCCl)ccc1CN1CCCN(Cc2ccc(N(CCCl)CCCl)cc2C)C1c1ccccc1O
dose: 6.25 mg/kg/injection, schedule: Q01DX009 (ip), vehicle: saline with Tween-80
  T/C: 130 % of control
dose: 25.0 mg/kg/injection, schedule: Q01DX009 (ip), vehicle: saline with Tween-80
  T/C: 146 % of control
dose: 50.0 mg/kg/injection, schedule: Q01DX009 (ip), vehicle: saline with Tween-80
  T/C: 132 % of control

## Nc1nc2c(ncn2C2OC(CO)C(O)C2O)c(=O)[nH]1.[Cl-].[Cl-].[NH2-].[NH2-].[Pt+4] (configuration not stated)
dose: 2.0 mg/kg/injection, schedule: Q01DX009 (ip), vehicle: saline
  T/C: 126 % of control
dose: 4.0 mg/kg/injection, schedule: Q01DX009 (ip), vehicle: saline
  T/C: 144 % of control
dose: 32.0 mg/kg/injection, schedule: Q01DX009 (ip), vehicle: saline
  T/C: 128 % of control
dose: 64.0 mg/kg/injection, schedule: Q01DX009 (ip), vehicle: saline
  survivor count: 6 of 6 (2×)

## COc1cc(C2N3CCCN2CC3)cc(OC)c1OC (configuration not stated)
dose: 400.0 mg/kg/injection, schedule: Q01DX009 (ip), vehicle: saline
  survivor count: 3 of 6

## O=C1C=CC(=O)N1n1cccc1
[6]
  survivor count: 0 of 6
[7]
  survivor count: 0 of 6
[8]
  survivor count: 0 of 6

## S=C1Nc2ccccc2C2CC=NN12 (configuration not stated)
dose: 100.0 mg/kg/injection, schedule: Q01DX009 (ip), vehicle: saline with Tween-80
  survivor count: 6 of 6

## COC(=O)c1cccc2c(Br)cc3ccccc3c12
dose: 75.0 mg/kg/injection, schedule: Q04DX003 (ip), vehicle: Klucel (hydroxypropylcellulose) (HPC)
  survivor count: 6 of 6

## Cc1ccnc(NC(=O)Nc2cc(F)ccc2F)c1
[1]
  survivor count: 6 of 6

## CCCCCCC(=O)/C=C/c1ccccc1OC(=O)/C=C/c1ccccc1
dose: 200.0 mg/kg/injection, schedule: Q01DX005 (ip), vehicle: saline + alcohol
  survivor count: 6 of 6

## N#CC1(NC(=O)C(Cl)Cl)c2ccccc2-c2ccccc21
[2]
  survivor count: 6 of 6
